Results from PMC4537050, “A long pentraxin-3-derived pentapeptide for the therapy of FGF8b-driven steroid hormone-regulated cancers” (Oncotarget, 2015).
Results are given in words; binding and its absence hold for the method and conditions named. A result given as binding can be weak or reduced; the word gives no strength.

Target: T1, Ac-ARPCA-NH2, acetylated pentapeptide corresponding to PTX3(100-104)
T1 sequence (peptide, N-terminal acetyl; C-terminal amide): ARPCA
Assay: NMR titration; 2D 1H-13C HSQC; 190 μM ARPCA in 50 mM potassium phosphate pH 6.7 (90% H2O/10% D2O), 2.5 mM arginine, 10 mM NaCl; FGF8 added at 1:0, 1:0.5 and 1:1 ARPCA:FGF8 ratios; 298 K, 600 MHz; both purified

binding: binds
Substance: Recombinant FGF8b for NMR studies (ligand)
